Test results reported in US11523990B2, “Non-covalent, self-organzing hydrogel matrix for biotechnological applications” (DENOVOMATRIX GMBH, priority 2012, dated 2022).

Test: Heparin dependent structural change by circular dichroism spectroscopy
Type: binding
Settings: unconjugated peptide in MilliQ-water with 14-kDa-heparin

Substance	Heparin dependent structural change (CD)
CWGGKAKAKAKaKAKAKA (CWGGKAKAKAKAKAKAKA; D-alanine residue) [KA7-1a]	no structural change occurs
CWGGKaKaKaKaKaKaKa (CWGGKAKAKAKAKAKAKA; D-alanine residues; (6)..(6) D-amino acid; (8)..(8) D-amino acid; (10)..(10) D-amino acid; (12)..(12) D-amino acid; (14)..(14) D-amino acid; (16)..(16) D-amino acid; (18)..(18) D-amino acid) [KdA7]	nor does one of these mutants show a structural change
CWGGkAkAkAkAkAkAkA (CWGGKAKAKAKAKAKAKA; D-lysine residues; (5)..(5) D-amino acid; (7)..(7) D-amino acid; (9)..(9) D-amino acid; (11)..(11) D-amino acid; (13)..(13) D-amino acid; (15)..(15) D-amino acid; (17)..(17) D-amino acid) [dKA7]	nor does one of these mutants show a structural change
